From PMC5345129
Changes are numbered by the printed parent chain. Names and notes keep the numbering of the source. No constants are given. Whether binding was seen depends on the method and setting. Binding seen in cells or lysates may run through a third protein. Binding can be weak; no strength is given. Sequences can lack the tags named with a protein. Each block holds one binder with its values, some of them ahead of it.

What was measured:
Assay in all cases: pull-down; GST fusion proteins bound to Glutathione Sepharose 4B; Gα variants from high-speed supernatants of transfected HEK293 cells, detergent diluted to 0.05% polyoxyethylene-10-lauryl ether; 50 mM HEPES pH 7.5, 1 mM EDTA, 3 mM dithiothreitol, 10 mM MgSO4; 2 h at 4°C; three washes; immunoblot (anti-Gα12, anti-myc or anti-EGFP); 5% of the extract kept as load; only the target purified
[1] = target: GST-fused 257-amino acid C-terminal region of AKAP-Lbc, charge-reversal mutant E2576R (human)
[2] = target: GST-fused 257-amino acid region of p114RhoGEF, charge-reversal mutant E759R (human)
[3] = target: GST-fusion of the RH domain of LARG (leukemia-associated RhoGEF)
[4] = target: GST-fused 257-amino acid region of p114RhoGEF, charge-reversal mutant E695R (human)
[5] = target: GST-fused 257-amino acid C-terminal region of AKAP-Lbc, charge-reversal mutant E2670R (human)
[6] = target: GST-fused 257-amino acid region of p114RhoGEF, charge-reversal mutant E789R (human)
[7] = target: GST-fusion of the 257-amino acid C-terminus of AKAP-Lbc (human)

B1: myc-tagged, constitutively active Gα12 (GTPase-deficient Q229L mutant) (protein, UniProt P27600 1-379)
chain: MSGVVRTLSRCLLPAEAGARERRAGAARDAEREARRRSRDIDALLARERRAVRRLVKILLLGAGESGKSTFLKQMRIIHGREFDQKALLEFRDTIFDNILKGSRVLVDARDKLGIPWQHSENEKHGMFLMAFENKAGLPVEPATFQLYVPALSALWRDSGIREAFSRRSEFQLGESVKYFLDNLDRIGQLNYFPSKQDILLARKATKGIVEHDFVIKKIPFKMVDVGGLRSQRQKWFQCFDGITSILFMVSSSEYDQVLMEDRRTNRLVESMNIFETIVNNKLFFNVSIILFLNKMDLLVEKVKSVSIKKHFPDFKGDPHRLEDVQRYLVQCFDRKRRNRSKPLFHHFTTAIDTENIRFVFHAVKDTILQENLKDIMLQ
- binding [1]: binds
- binding [2]: binds
- binding [3]: binds
- binding [4]: binds
- binding [5]: binds
- binding [6]: binds
- binding [7]: binds

B4: EGFP-tagged, constitutively active Gα12 (Q229L) (protein, UniProt P27600 1-379)
chain: B1 chain
- binding [3]: binds
- binding [7]: binds

B5: EGFP-tagged, constitutively active Gα13 (Q226L) (protein, UniProt P27601 1-377)
chain: MADFLPSRSVLSVCFPGCVLTNGEAEQQRKSKEIDKCLSREKTYVKRLVKILLLGAGESGKSTFLKQMRIIHGQDFDQRAREEFRPTIYSNVIKGMRVLVDAREKLHIPWGDNKNQLHGDKLMAFDTRAPMAAQGPVETRVFLQYLPAIRALWEDSGIQNAYDRRREFQLGESVKYFLDNLDKLGVPDYIPSQQDILLARRPTKGIHEYDFEIKNVPFKMVDVGGLRSERKRWFECFDSVTSILFLVSSSEFDQVLMEDRQTNRLTESLNIFETIVNNRVFSNVSIILFLNKTDLLEEKVQVVSIKDYFLEFEGDPHCLRDVQKFLVECFRGKRRDQQQRPLYHHFTTAINTENIRLVFRDVKDTILHDNLKQLMLQ
- binding [7]: no binding

Next, values leading:

- binding [7]: binds
B2: myc-tagged, constitutively active Gα12 (Q229L) cassette mutant Δ244–249 (protein, UniProt P27600 1-379)
chain: B1 chain with T244N, S245A, I246A, L247I, F248R, M249S

- binding [3]: binds
B3: myc-tagged, constitutively active Gα12 (Q229L) with C11A substitution (protein, UniProt P27600 1-379)
chain: B1 chain with C11A
